# Assay results as given in the supplement of paper PMC8728848.
# The other results are listed elsewhere or left out.
# B1: EUL D1A (Oryza sativa) (protein)
# chain: MFGFGHHHNQAPAAPSDPNQIFKIFCRANENYCLTVRDSAVVLAPVNPKDEHQHWFKDMRFSTKVKDGEGMPAFALVNKATGLAVKHSLGQSHPVKLVPFNPEYEDASVLWTESKDVGKGFRCIRMVNNTRLNLDAFHGDKDHGGVRDGTTVVLWEWCKGDNQSWKILPWGPEAHSSSPGAATACTIGGVPVHTVRVFSAAGEDYCLTVRNGTACLAPKNPRDDYQHWIKDMRHSNKIRDEEGYPAFALVNKVTGEAIKHSTGQGHPVKLVPYNPEYQDESVLWTESKDVGKGFRCIRMVNNIYLNFDAFHGDKDHGGIHDGTEIVLWKWCEGDNQRWKILPWILEQKLISEEDLNSAVDHHHHHH
# Tests used:
# Test in all cases: glycan array binding signal (z-score within array); higher = stronger binding
# Details in all cases: glycan notation: IUPAC condensed, linker removed
# [1] = biological target: Neu5Ac(a2-3)Gal(b1-3)]Neu5Ac(a2-3)Gal(b1-4)]GlcNAc
# Method in brief: (§1)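 Columns mapping to the same glycan were averaged after glycan names were converted to IUPAC-condensed notation. The data come from 3228 arrays in the Consortium for Functional Glycomics database, limited to those with an available protein sequence. Binding is reported as a within-array Z-score averaged across arrays of one protein sequence and across linkers.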
# [2] = biological target: Neu5Ac(a2-3)Gal(b1-4)Glc
# Method in brief: as §1
# [3] = biological target: Neu5Ac(a2-3)Gal(b1-4)GlcNAc
# Method in brief: as §1
# [4] = biological target: Neu5Ac(a2-3)Gal(b1-4)GlcNAc(b1-2)Man
# Method in brief: as §1
# [5] = biological target: Neu5Ac(a2-3)Gal(b1-4)GlcNAc(b1-2)Man(a1-3)[GlcNAc(b1-4)][Neu5Ac(a2-3)Gal(b1-4)GlcNAc(b1-2)Man(a1-6)]Man(b1-4)GlcNAc(b1-4)GlcNAc
# Method in brief: as §1
# [6] = biological target: Neu5Ac(a2-3)Gal(b1-4)GlcNAc(b1-2)Man(a1-3)[Neu5Ac(a2-3)Gal(b1-4)GlcNAc(b1-2)Man(a1-6)]Man(b1-4)GlcNAc(b1-4)GlcNAc
# Method in brief: as §1
# [7] = biological target: Neu5Ac(a2-3)Gal(b1-4)GlcNAc(b1-2)Man(a1-3)[Neu5Ac(a2-3)Gal(b1-4)GlcNAc(b1-2)Man(a1-6)]Man(b1-4)GlcNAc(b1-4)[Fuc(a1-6)]GlcNAc
# Method in brief: as §1
# [8] = biological target: Neu5Ac(a2-3)Gal(b1-4)GlcNAc(b1-2)Man(a1-3)[Neu5Ac(a2-6)Gal(b1-4)GlcNAc(b1-2)Man(a1-6)]Man(b1-4)GlcNAc(b1-4)GlcNAc
# Method in brief: as §1
# [9] = biological target: Neu5Ac(a2-3)Gal(b1-4)GlcNAc(b1-2)[Neu5Ac(a2-3)Gal(b1-4)GlcNAc(b1-4)]Man(a1-3)[GlcNAc(b1-4)][Neu5Ac(a2-3)Gal(b1-4)GlcNAc(b1-2)[Neu5Ac(a2-3)Gal(b1-4)GlcNAc(b1-6)]Man(a1-6)]Man(b1-4)GlcNAc(b1-4)GlcNAc
# Method in brief: as §1
# [10] = biological target: Neu5Ac(a2-3)Gal(b1-4)GlcNAc(b1-2)[Neu5Ac(a2-3)Gal(b1-4)GlcNAc(b1-4)]Man(a1-3)[GlcNAc(b1-4)][Neu5Ac(a2-3)Gal(b1-4)GlcNAc(b1-4)Man(a1-6)]Man(b1-4)GlcNAc(b1-4)GlcNAc
# Method in brief: as §1
# [11] = biological target: Neu5Ac(a2-3)Gal(b1-4)GlcNAc(b1-2)[Neu5Ac(a2-3)Gal(b1-4)GlcNAc(b1-6)]Man(a1-6)[Neu5Ac(a2-3)Gal(b1-4)GlcNAc(b1-2)Man(a1-3)][GlcNAc(b1-4)]Man(b1-4)GlcNAc(b1-4)GlcNAc
# Method in brief: as §1
# [12] = biological target: Neu5Ac(a2-3)Gal(b1-4)GlcNAc(b1-3)Gal
# Method in brief: as §1
# [13] = biological target: Neu5Ac(a2-3)Gal(b1-4)GlcNAc(b1-3)Gal(b1-3)GlcNAc
# Method in brief: as §1
# [14] = biological target: Neu5Ac(a2-3)Gal(b1-4)GlcNAc(b1-3)Gal(b1-4)GlcNAc
# Method in brief: as §1
# [15] = biological target: Neu5Ac(a2-3)Gal(b1-4)GlcNAc(b1-3)Gal(b1-4)GlcNAc(b1-2)Man(a1-3)[Neu5Ac(a2-3)Gal(b1-4)GlcNAc(b1-3)Gal(b1-4)GlcNAc(b1-2)Man(a1-6)]Man(b1-4)GlcNAc(b1-4)GlcNAc
# Method in brief: as §1
# [16] = biological target: Neu5Ac(a2-3)Gal(b1-4)GlcNAc(b1-3)Gal(b1-4)GlcNAc(b1-3)Gal(b1-4)GlcNAc
# Method in brief: as §1
# [17] = biological target: Neu5Ac(a2-3)Gal(b1-4)GlcNAc(b1-3)Gal(b1-4)GlcNAc(b1-3)Gal(b1-4)GlcNAc(b1-2)Man(a1-3)[Neu5Ac(a2-3)Gal(b1-4)GlcNAc(b1-3)Gal(b1-4)GlcNAc(b1-3)Gal(b1-4)GlcNAc(b1-2)Man(a1-6)]GalNAc
# Method in brief: as §1
# [18] = biological target: Neu5Ac(a2-3)Gal(b1-4)GlcNAc(b1-3)Gal(b1-4)GlcNAc(b1-3)GalNAc
# Method in brief: as §1
# [19] = biological target: Neu5Ac(a2-3)Gal(b1-4)GlcNAc(b1-3)Gal(b1-4)GlcNAc(b1-3)[Neu5Ac(a2-3)Gal(b1-4)GlcNAc(b1-3)Gal(b1-4)GlcNAc(b1-6)]GalNAc
# Method in brief: as §1
# [20] = biological target: Neu5Ac(a2-3)Gal(b1-4)GlcNAc(b1-3)Gal(b1-4)GlcNAc(b1-6)[Gal(b1-3)]GalNAc
# Method in brief: as §1
# [21] = biological target: Neu5Ac(a2-3)Gal(b1-4)GlcNAc(b1-3)Gal(b1-4)[Fuc(a1-3)]GlcNAc
# Method in brief: as §1
# [22] = biological target: Neu5Ac(a2-3)Gal(b1-4)GlcNAc(b1-3)GalNAc
# Method in brief: as §1
# [23] = biological target: Neu5Ac(a2-3)Gal(b1-4)GlcNAc(b1-3)[Neu5Ac(a2-3)Gal(b1-4)GlcNAc(b1-6)]GalNAc
# Method in brief: as §1
# [24] = biological target: Neu5Ac(a2-3)Gal(b1-4)GlcNAc(b1-6)GalNAc
# Method in brief: as §1
# [25] = biological target: Neu5Ac(a2-3)Gal(b1-4)GlcNAc(b1-6)[Gal(b1-3)]GalNAc
# Method in brief: as §1
# [26] = biological target: Neu5Ac(a2-3)Gal(b1-4)GlcNAc(b1-6)[Neu5Ac(a2-3)Gal(b1-3)]GalNAc
# Method in brief: as §1
# [27] = biological target: Neu5Ac(a2-3)Gal(b1-4)GlcNAc6S
# Method in brief: as §1
# [28] = biological target: Neu5Ac(a2-3)Gal(b1-4)[Fuc(a1-3)]GlcNAc
# Method in brief: as §1
# [29] = biological target: Neu5Ac(a2-3)Gal(b1-4)[Fuc(a1-3)]GlcNAc(b1-2)Man
# Method in brief: as §1
# [30] = biological target: Neu5Ac(a2-3)Gal(b1-4)[Fuc(a1-3)]GlcNAc(b1-3)Gal
# Method in brief: as §1
# [31] = biological target: Neu5Ac(a2-3)Gal(b1-4)[Fuc(a1-3)]GlcNAc(b1-3)Gal(b1-4)GlcNAc
# Method in brief: as §1
# [32] = biological target: Neu5Ac(a2-3)Gal(b1-4)[Fuc(a1-3)]GlcNAc(b1-3)Gal(b1-4)[Fuc(a1-3)]GlcNAc(b1-3)Gal(b1-4)[Fuc(a1-3)]GlcNAc
# Method in brief: as §1
# [33] = biological target: Neu5Ac(a2-3)Gal(b1-4)[Fuc(a1-3)]GlcNAc(b1-3)GalNAc
# Method in brief: as §1
# [34] = biological target: Neu5Ac(a2-3)Gal(b1-4)[Fuc(a1-3)]GlcNAc(b1-6)[Gal(b1-3)]GalNAc
# Method in brief: as §1
# [35] = biological target: Neu5Ac(a2-3)Gal(b1-4)[Fuc(a1-3)]GlcNAc(b1-6)[Neu5Ac(a2-3)Gal(b1-3)]GalNAc
# Method in brief: as §1
# [36] = biological target: Neu5Ac(a2-3)Gal(b1-4)[Fuc(a1-3)]GlcNAc6S
# Method in brief: as §1
# [37] = biological target: Neu5Ac(a2-3)Gal6S(b1-4)GlcNAc
# Method in brief: as §1
# [38] = biological target: Neu5Ac(a2-3)Gal6S(b1-4)[Fuc(a1-3)]GlcNAc
# Method in brief: as §1
binder,measurement,setting,value
B1,glycan array binding signal (z-score),[1],-0.124
same,glycan array binding signal (z-score),[2],0.016
same,glycan array binding signal (z-score),[3],0.048
same,glycan array binding signal (z-score),[4],-0.333
same,glycan array binding signal (z-score),[5],0.87
same,glycan array binding signal (z-score),[6],-0.59
same,glycan array binding signal (z-score),[7],0.798
same,glycan array binding signal (z-score),[8],-0.359
same,glycan array binding signal (z-score),[9],0.778
same,glycan array binding signal (z-score),[10],-1.49
same,glycan array binding signal (z-score),[11],-0.806
same,glycan array binding signal (z-score),[12],0.074
same,glycan array binding signal (z-score),[13],-0.328
same,glycan array binding signal (z-score),[14],-0.613
same,glycan array binding signal (z-score),[15],-1.23
same,glycan array binding signal (z-score),[16],-0.439
same,glycan array binding signal (z-score),[17],0.688
same,glycan array binding signal (z-score),[18],-0.895
same,glycan array binding signal (z-score),[19],0.916
same,glycan array binding signal (z-score),[20],-0.261
same,glycan array binding signal (z-score),[21],-0.691
same,glycan array binding signal (z-score),[22],-1.32
same,glycan array binding signal (z-score),[23],-1.07
same,glycan array binding signal (z-score),[24],-0.547
same,glycan array binding signal (z-score),[25],-0.521
same,glycan array binding signal (z-score),[26],2.69
same,glycan array binding signal (z-score),[27],-0.182
same,glycan array binding signal (z-score),[28],-0.398
same,glycan array binding signal (z-score),[29],-1.12
same,glycan array binding signal (z-score),[30],-0.856
same,glycan array binding signal (z-score),[31],-1.22
same,glycan array binding signal (z-score),[32],-0.352
same,glycan array binding signal (z-score),[33],1.45
same,glycan array binding signal (z-score),[34],1.33
same,glycan array binding signal (z-score),[35],0.616
same,glycan array binding signal (z-score),[36],-1.43
same,glycan array binding signal (z-score),[37],-0.975
same,glycan array binding signal (z-score),[38],-0.714

# Two consecutive entries out of the list so far:
binder,measurement,setting,value
B1,glycan array binding signal (z-score),[23],-1.07
same,glycan array binding signal (z-score),[24],-0.547
